# Results from patent publication US20220175944A1.
# The chains behind the UniProt entries cited, without tags or fusion partners. Where a name states a change or a piece, a line headed by the entry shows the natural chain unless it says otherwise. A line that says so, or that is headed by a name, gives the form on record, which may keep a tag or linker.
# Rhesus CD117 (F6V858, form named): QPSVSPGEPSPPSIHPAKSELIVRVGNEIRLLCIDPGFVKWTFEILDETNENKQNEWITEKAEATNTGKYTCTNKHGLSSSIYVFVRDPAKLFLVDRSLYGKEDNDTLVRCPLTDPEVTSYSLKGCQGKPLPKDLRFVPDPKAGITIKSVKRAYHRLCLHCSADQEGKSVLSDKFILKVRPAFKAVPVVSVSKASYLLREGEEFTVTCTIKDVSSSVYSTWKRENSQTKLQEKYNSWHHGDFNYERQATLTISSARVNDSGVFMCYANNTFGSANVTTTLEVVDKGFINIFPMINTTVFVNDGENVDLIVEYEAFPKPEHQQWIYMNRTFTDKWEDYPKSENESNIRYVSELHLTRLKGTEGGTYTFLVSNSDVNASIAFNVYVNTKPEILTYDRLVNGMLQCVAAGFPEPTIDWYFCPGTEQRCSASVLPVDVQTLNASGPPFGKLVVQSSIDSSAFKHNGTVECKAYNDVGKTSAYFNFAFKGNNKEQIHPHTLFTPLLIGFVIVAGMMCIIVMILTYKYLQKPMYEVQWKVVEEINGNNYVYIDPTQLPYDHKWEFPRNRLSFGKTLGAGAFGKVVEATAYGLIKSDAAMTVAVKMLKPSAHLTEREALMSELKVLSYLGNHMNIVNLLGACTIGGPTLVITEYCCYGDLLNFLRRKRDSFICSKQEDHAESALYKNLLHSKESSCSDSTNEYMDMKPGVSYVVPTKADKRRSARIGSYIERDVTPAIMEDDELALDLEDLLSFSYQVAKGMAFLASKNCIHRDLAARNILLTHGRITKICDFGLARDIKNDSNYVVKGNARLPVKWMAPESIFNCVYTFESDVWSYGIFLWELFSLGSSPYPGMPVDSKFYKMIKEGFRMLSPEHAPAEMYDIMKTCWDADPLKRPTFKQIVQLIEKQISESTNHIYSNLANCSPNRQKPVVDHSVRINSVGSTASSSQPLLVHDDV
# UniProt P10721: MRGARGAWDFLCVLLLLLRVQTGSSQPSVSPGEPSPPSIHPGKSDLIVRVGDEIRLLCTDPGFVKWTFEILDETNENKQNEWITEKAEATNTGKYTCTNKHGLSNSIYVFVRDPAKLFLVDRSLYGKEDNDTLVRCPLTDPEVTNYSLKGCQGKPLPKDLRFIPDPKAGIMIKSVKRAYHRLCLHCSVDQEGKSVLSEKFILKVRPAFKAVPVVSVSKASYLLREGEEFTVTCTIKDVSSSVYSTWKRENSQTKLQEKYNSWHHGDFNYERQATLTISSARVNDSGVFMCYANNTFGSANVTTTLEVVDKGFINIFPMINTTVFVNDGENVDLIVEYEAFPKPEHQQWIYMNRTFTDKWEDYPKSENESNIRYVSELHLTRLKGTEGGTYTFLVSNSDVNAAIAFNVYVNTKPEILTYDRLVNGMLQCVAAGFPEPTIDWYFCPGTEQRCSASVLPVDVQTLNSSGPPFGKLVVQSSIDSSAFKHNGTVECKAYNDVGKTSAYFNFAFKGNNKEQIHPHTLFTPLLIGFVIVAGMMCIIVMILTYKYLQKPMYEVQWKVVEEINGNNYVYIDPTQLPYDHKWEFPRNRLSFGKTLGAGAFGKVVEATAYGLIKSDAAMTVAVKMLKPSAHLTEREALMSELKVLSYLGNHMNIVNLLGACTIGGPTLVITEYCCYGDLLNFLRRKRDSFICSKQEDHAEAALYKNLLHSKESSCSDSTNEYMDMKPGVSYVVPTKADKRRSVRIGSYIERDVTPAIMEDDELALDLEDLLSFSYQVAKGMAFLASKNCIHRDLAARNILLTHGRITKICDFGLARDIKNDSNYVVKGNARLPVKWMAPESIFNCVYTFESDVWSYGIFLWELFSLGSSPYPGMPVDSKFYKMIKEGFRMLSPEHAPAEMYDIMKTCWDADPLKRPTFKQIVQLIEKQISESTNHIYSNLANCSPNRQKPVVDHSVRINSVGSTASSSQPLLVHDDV
# Substitutions are numbered along the chain they refer to. No constants are given. Whether binding was seen depends on the method and setting. Some entries that bind do so weakly or less than the wild type.
# B1: Antibody 57 (antibody, V domains shown)
# VH: QVQLVQSGAEVKKPGSSVKVSCKASGGTFSLYAISWVRQAPGQGLEWMGGIIPHFGLANYAQKFQGRVTITADESTSTAYMELSSLRSEDTAVYYCARGGLDTDEFDLWGRGTLVTVSS
# VL: DIQMTQSPSSLSASVGDRVTITCRASQSINSYLNWYQQKPGKAPKLLIYAASSLQSGVPSRFSGSGSGTDFTLTISSLQPEDFATYYCQQGVSDITFGGGTKVEIKR
# B2: Antibody 55 (antibody, V domains shown)
# VH: B1 VH with S30R, L31I, H54D, L57V
# VL: B1 VL
# B3: Antibody 61 (antibody, V domains shown)
# VH: EVQLLESGGGLVQPGGSLRLSCAASGFTFSSYVMIWVRQAPGKGLEWVSSISGDSVTTYYADSVKGRFTISRDNSKNTLYLQMNSLRAEDTAVYYCAKGPPTYHTNYYYMDVWGKGTTVTVSS
# VL: DIQMTQSPSSVSASVGDRVTITCRASQGISSWLAWYQQKPGKAPKLLIYAASSLQSGVPSRFSGSGSGTDFTLTISSLQPEDFATYYCQQTNSFPYTFGGGTKVEIKR
# Target: Rhesus CD117 (rhesus) (UniProt F6V858)
# Experiment: yeast library screen; binding assay not described
row,binding,Binder
1,binds,B1
2,binds,B2
3,binds,B3

# Target: Human CD117 isoform 1 (human) (UniProt P10721)
# Experiment: yeast library screen; binding assay not described
row,binding,Binder
1,binds,B1
2,binds,B2
3,binds,B3

# Target: Human CD117 isoform 2 (human) (UniProt P10721)
# Experiment: yeast library screen; binding assay not described
row,binding,Binder
1,binds,B1
2,binds,B2
3,binds,B3
